Source: patent publication US5608091A, “Quinizarin compound, method for production thereof, and use therefor” (Nippon Shokubai Co., Ltd., priority 1993, dated 1997)

Experiments:
[1] = Thermal transfer recording, color development strength and tone; details: for Color development strength: thermal head 10 V, 4.0 m.sec., densitometer RD-914; for Color tone: thermal transfer recorded image
[2] = Color filter color tone, transparency and lightfastness; details: for Color tone and transparency of color filter: 3 parts dye in 97 parts polymethyl methacrylate; for Lightfastness of color filter: xenon lamp, black panel 63° C.
[3] = Electrophotographic toner copying test and xenon lamp lightfastness of copied images; details: for Ratio of retention of color density: toner copied images, xenon lamp, black panel 63° C., 100 hours; for Color tone: toner, Table 10
[4] = Reflectance of optical recording medium; details: 770 nm to 800 nm, recording layer on polycarbonate, gold reflecting layer

| Structure (SMILES) | Color development strength [1] | Color tone [1] | Color tone and transparency of color filter [2] | Lightfastness of color filter [2] | Ratio of retention of color density [3] [%] | Color tone [3] | Reflectance [4] |
| --- | --- | --- | --- | --- | --- | --- | --- |
| O=C1c2c(O)ccc(O)c2C(=O)c2c(F)c(Nc3c(Cl)cccc3Cl)c(F)c(F)c21 [(22)] | 2.25 | Magenta | clear magenta color tone showing no sign of turbidity and diffusing a sensation of transparency | absolutely no sign of change in color tone | 94 | Magenta | – |
| CCCCCCCCOc1c(F)c2c(c(F)c1Nc1ccc(C(=O)OCC)cc1)C(=O)c1c(O)ccc(O)c1C2=O [(33)] | 2.42 | Magenta | – | – | 91 | Magenta | – |
| CCCCCCCCOc1c(F)c2c(c(F)c1Nc1ccc(C(=O)OCCCC)cc1)C(=O)c1c(O)ccc(O)c1C2=O [(36)] | 2.39 | Magenta | – | – | 92 | Magenta | – |
| CCCCCCCCOc1c(F)c2c(c(F)c1Nc1ccc([N+](=O)[O-])cc1)C(=O)c1c(O)ccc(O)c1C2=O [(41)] | 2.61 | Magenta | – | – | 95 | Magenta | – |
| CCCCCCCCOc1c(F)c2c(c(F)c1Nc1ccc(C#N)cc1)C(=O)c1c(O)ccc(O)c1C2=O [(45)] | 2.54 | Magenta | – | – | 94 | Magenta | – |
| CCCCCCCCOc1c(F)c2c(c(F)c1Nc1c(CC)cccc1CC)C(=O)c1c(O)ccc(O)c1C2=O [(51)] | 2.58 | Magenta | – | – | 90 | Magenta | – |
| O=C1c2ccc(Nc3c(Cl)cccc3Cl)cc2C(=O)c2c(O)ccc(O)c21 [(102)] | 2.12 | Magenta | – | – | 92 | Magenta | – |
| CCc1cccc(CC)c1Nc1c(F)c2c(c(F)c1Nc1c(CC)cccc1CC)C(=O)c1c(O)ccc(O)c1C2=O [(137)] | 2.39 | Cyan | – | – | 95 | Cyan | – |
| CC(C)c1cccc(C(C)C)c1Nc1c(F)c2c(c(F)c1Nc1c(C(C)C)cccc1C(C)C)C(=O)c1c(O)ccc(O)c1C2=O [(139)] | 2.42 | Cyan | clear cyanogen color tone showing no sign of turbidity and diffusing a sensation of transparency | absolutely no sign of change in color tone | 94 | Cyan | – |
| CCc1ccc(Cl)c(CC)c1Nc1c(F)c2c(c(F)c1Nc1c(CC)ccc(Cl)c1CC)C(=O)c1c(O)ccc(O)c1C2=O [(141)] | 2.35 | Cyan | – | – | – | – | – |
| CCCCCCCCOc1c(Nc2cccc(C(=O)OCC)c2)c(Nc2cccc(C(=O)OCC)c2)c(F)c2c1C(=O)c1c(O)ccc(O)c1C2=O [(156)] | 2.28 | Cyan | – | – | 95 | Cyan | – |
| CCCCCCCCOc1c(Nc2ccc(C(=O)OCC)cc2)c(Nc2ccc(C(=O)OCC)cc2)c(F)c2c1C(=O)c1c(O)ccc(O)c1C2=O [(157)] | – | – | – | – | 96 | Cyan | – |
| CCCCOc1c(Nc2c(CC)cccc2CC)c(Nc2c(CC)cccc2CC)c(F)c2c1C(=O)c1c(O)ccc(O)c1C2=O [(158)] | 2.43 | Cyan | – | – | 92 | Cyan | – |
| CCCCOc1c(Nc2c(C(C)C)cccc2C(C)C)c(Nc2c(C(C)C)cccc2C(C)C)c(F)c2c1C(=O)c1c(O)ccc(O)c1C2=O [(159)] | 2.36 | Cyan | – | – | 93 | Cyan | – |
| CCCCOc1c(Nc2c(CC)ccc(Cl)c2CC)c(Nc2c(CC)ccc(Cl)c2CC)c(F)c2c1C(=O)c1c(O)ccc(O)c1C2=O [(160)] | 2.34 | Cyan | – | – | 94 | Cyan | – |
| CCCCCCCCOc1c(Nc2c(CC)ccc(Cl)c2CC)c(Nc2c(CC)ccc(Cl)c2CC)c(F)c2c1C(=O)c1c(O)ccc(O)c1C2=O [(161)] | – | – | – | – | 95 | Cyan | – |
| CCCCOc1c(Nc2c(C)cccc2C(=O)OCC)c(Nc2c(C)cccc2C(=O)OCC)c(F)c2c1C(=O)c1c(O)ccc(O)c1C2=O [(162)] | 2.37 | Cyan | – | – | 93 | Cyan | – |
| CCCCCCCCOc1c(Nc2c(C)cccc2C(=O)OCC)c(Nc2c(C)cccc2C(=O)OCC)c(F)c2c1C(=O)c1c(O)ccc(O)c1C2=O [(163)] | – | – | – | – | 92 | Cyan | – |
| CCCCCCCCOc1c(Nc2c(Cl)cccc2Cl)c(Nc2c(Cl)cccc2Cl)c(F)c2c1C(=O)c1c(O)ccc(O)c1C2=O [(183)] | 2.14 | Cyan | – | – | – | – | – |
| CCCCCCCCSc1c(Nc2c(C(C)C)cccc2C(C)C)c(Nc2c(C(C)C)cccc2C(C)C)c(F)c2c1C(=O)c1c(O)ccc(O)c1C2=O [Dye (232), 6,7-bis(2,6-diisopropylanilino)-5-octylthio-8-fluoroquinizarin] | – | – | – | – | – | – | not less than 70% |
| CCCCCCCCSc1c(Nc2c(OCC)cccc2OCC)c(Nc2c(OCC)cccc2OCC)c(F)c2c1C(=O)c1c(O)ccc(O)c1C2=O [Dye (233), 6,7-bis(2,6-diethoxyanilino)-5-octylthio-8-fluoroquinizarin] | – | – | – | – | – | – | not less than 70% |
| CCOc1cccc(OCC)c1Nc1c(F)c2c(c(Sc3ccccc3)c1Nc1c(OCC)cccc1OCC)C(=O)c1c(O)ccc(O)c1C2=O [Dye (234), 6,7-bis(2,6-diethoxyanilino)-5-phenylthio-8-fluoroquinizarin] | – | – | – | – | – | – | not less than 70% |
| CCCCCCCCSc1c(Nc2c(C(C)C)cccc2C(C)C)c(NCCCC)c(F)c2c1C(=O)c1c(O)ccc(O)c1C2=O [Dye (239), 6-(2,6-diisopropylanilino)-7-butylamino-5-octylthio-8-fluoroquinizarin] | – | – | – | – | – | – | not less than 70% |
| CCCCCCCCSc1c(Nc2c(OCC)cccc2OCC)c(NCCCC)c(F)c2c1C(=O)c1c(O)ccc(O)c1C2=O [Dye (240), 6-(2,6-diethoxyanilino)-7-butylamino-5-octylthio-8-fluoroquinizarin] | – | – | – | – | – | – | not less than 70% |
| CCCCNc1c(F)c2c(c(Sc3ccccc3)c1Nc1c(OCC)cccc1OCC)C(=O)c1c(O)ccc(O)c1C2=O [Dye (241), 6-(2,6-diethoxyanilino)-7-butylamino-5-phenylthio-8-fluoroquinizarin] | – | – | – | – | – | – | not less than 70% |
| CC(C)c1cccc(C(C)C)c1Nc1c(F)c2c(c(Nc3c(C(C)C)cccc3C(C)C)c1Nc1c(C(C)C)cccc1C(C)C)C(=O)c1c(O)ccc(O)c1C2=O [Dye (245), 5,6,7-tris(2,6-diisopropylanilino)-8-fluoroquinizarin] | – | – | – | – | – | – | 71% |
